Experimental data: patent US4777182A, “6-Amidino-2-naphthyl 4-guanidinobenzoate derivatives and pharmaceutical composition containing them” (Torii & Co., Ltd., priority 1984, dated 1988)
At least one structure is not confirmed: it was looked up by name or label, or the drawing left a doubt.

System: Forssman shock
Assay: Forssman shock
Type: in vivo
Conditions: guinea pig, 100 mg/kg orally before i.v. hemolysin; individual animals
Excerpt: Quite different from other animals, guinea pig has on the surface of its organs a specific antigen called Forssman antigen which specifically reacts with the antibody of sheep erythrocyte. Forssman shock is based on the above principle and is a shock caused by the administration of antibody of sheep erythrocyte to a guinea pig. The Forssman shock was investigated in detail by many researches and it was definitely shown that this shock is a model case where the complement plays the principal part and that the shock is associated with a classical pathway in which the complement system is activated progressively starting from C1. Since the participation of complement in autoimmune diseases has been established, the Forssman shock can be said to be useful means for testing a drug for autoimmune diseases. A drug effective for the treatment of Forssman shock is useful as a drug of autoimmune diseases.
The experiment was performed according to the method of I. G. Offerness et al. [Biochem. Pharmacol., 27 (14), 1873-1878 (1978)]. Male Hartley guinea pigs of about 350 g in body weight were used. Each guinea pig of the control group was administered intravenously with hemolysin (minimum dose to cause the shock) (commercial hemolysin, 5,000 U as assayed by the method of Ogata) and the time elapsed until death was observed. […]

N=C(N)c1ccc2cc(OC(=O)c3ccc(NC4=NCCN4)cc3)ccc2c1 [Compound No. 2, 6-amidino-2-naphthyl 4-(2-imidazolinyl)amino-benzoate]
Survival (instead of time elapsed until death): Survival
